The text below walks through data of US20250270343A1.

Sequences of proteins named here, by UniProt entry; tags and fusion partners are left off. Residues count along the entry.
UniProt Q14956, residues 23-498: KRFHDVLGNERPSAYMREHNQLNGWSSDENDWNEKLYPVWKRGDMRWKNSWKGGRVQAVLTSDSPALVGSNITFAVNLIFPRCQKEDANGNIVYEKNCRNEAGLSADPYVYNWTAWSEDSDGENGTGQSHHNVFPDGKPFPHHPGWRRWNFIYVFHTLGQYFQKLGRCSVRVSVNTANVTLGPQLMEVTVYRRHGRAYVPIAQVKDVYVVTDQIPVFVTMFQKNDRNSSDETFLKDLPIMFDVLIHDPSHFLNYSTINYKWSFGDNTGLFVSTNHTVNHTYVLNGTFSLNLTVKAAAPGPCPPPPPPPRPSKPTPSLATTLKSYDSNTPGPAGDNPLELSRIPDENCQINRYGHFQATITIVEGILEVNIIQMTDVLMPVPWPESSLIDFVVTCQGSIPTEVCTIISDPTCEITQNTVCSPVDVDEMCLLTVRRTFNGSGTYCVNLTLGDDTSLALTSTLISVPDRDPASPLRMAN
UniProt Q99P91, residues 23-502: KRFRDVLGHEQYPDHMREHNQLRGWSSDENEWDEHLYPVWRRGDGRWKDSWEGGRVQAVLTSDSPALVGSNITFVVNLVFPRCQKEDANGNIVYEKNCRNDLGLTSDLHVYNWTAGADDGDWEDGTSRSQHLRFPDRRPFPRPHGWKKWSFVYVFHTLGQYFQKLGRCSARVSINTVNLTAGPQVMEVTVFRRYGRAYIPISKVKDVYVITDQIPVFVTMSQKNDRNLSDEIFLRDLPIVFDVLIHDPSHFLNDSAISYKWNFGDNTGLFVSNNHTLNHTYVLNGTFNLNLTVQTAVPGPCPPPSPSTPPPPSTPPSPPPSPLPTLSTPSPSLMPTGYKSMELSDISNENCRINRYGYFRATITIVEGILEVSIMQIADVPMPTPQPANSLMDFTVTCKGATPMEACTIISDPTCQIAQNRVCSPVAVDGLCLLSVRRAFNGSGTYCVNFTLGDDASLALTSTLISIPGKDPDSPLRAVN

No constants are given. Whether binding was seen depends on the method and setting. Some binding calls cover weakened binding; strength is not graded here.

Experiment [1] has as its target soluble human GPNMB-Fc polypeptide (human) (UniProt Q14956). The experiment can be described thus: FACS ligand binding assay: 2 ug/mL huGPNMB-Fc pre-complexed with rising Fab2, then SVEC4-10 cells; blocked ligand: unidentified ligand(s) on SVEC4-10 cells; bound GPNMB-Fc detected with anti-human IgG1 secondary.
Experiment [2] addresses soluble mouse GPNMB-Fc polypeptide (Fc of human IgG1 or mouse IgG2A, not specified for the assay) (mouse) (UniProt Q99P91). The experiment can be described thus: FACS ligand binding assay: 2 ug/mL moGPNMB-Fc pre-complexed with rising Fab2, then SVEC4-10 cells; ligand side: unidentified ligand(s) on SVEC4-10 cells; bound GPNMB-Fc detected with anti-human IgG1 secondary.
In experiment [3] the target is soluble human GPNMB (recombinant extracellular domain) (human) (UniProt Q14956). Description: SPR binding. On the technique in general: Surface plasmon resonance follows binding to a sensor surface in real time, without labels.
For experiment [4], the target named is soluble cynomolgus GPNMB (recombinant extracellular domain) (cynomolgus). The experiment can be described thus: SPR binding.
Experiment [5] deals with full-length untagged human GPNMB expressed on cells (human) (UniProt Q14956). Description: FACS on Freestyle293 cells stably expressing human GPNMB; single antibody concentration (not given); APC anti-human IgG secondary; MFI as fold over background.
For experiment [6] the target is unchanged. Description: cell binding.
Experiment [7] has the same target. The experiment can be described thus: FACS titration on cells.
For experiment [8], the target named is soluble human GPNMB (recombinant extracellular domain) (human) (UniProt Q14956). The experiment can be described thus: SPR binding kinetics.
Experiment [9] has as its target soluble cynomolgus GPNMB (recombinant extracellular domain) (cynomolgus). The experiment can be described thus: SPR binding kinetics.
Experiment [10] concerns the target soluble mouse GPNMB-Fc polypeptide (mouse IgG2A Fc) (mouse) (UniProt Q99P91). The experiment can be described thus: FACS ligand binding assay: 2 ug/mL moGPNMB-Fc (mouse IgG2A Fc) pre-complexed with rising antibody, then SVEC4-10 cells; ligand side: unidentified ligand(s) on SVEC4-10 cells; bound moGPNMB-Fc detected with anti-mouse IgG2A.
The target is the same in experiment [11]. Description: FACS ligand binding assay: 2 ug/mL moGPNMB-Fc (mouse IgG2A Fc) pre-complexed with rising antibody, then SVEC4-10 cells; blocked ligand: unidentified ligand(s) on SVEC4-10 cells; bound moGPNMB-Fc detected with anti-mouse IgG2A.
Experiment [12] deals with soluble mouse GPNMB-Fc polypeptide (Fc of human IgG1 or mouse IgG2A, not specified for the assay) (mouse) (UniProt Q99P91). Description: FACS ligand binding assay: 2 ug/mL moGPNMB-Fc pre-complexed with rising Fab2, then SVEC4-10 cells; blocked ligand: unidentified ligand(s) on SVEC4-10 cells; bound GPNMB-Fc detected with anti-human IgG1 secondary.
For experiment [13], the target named is soluble human GPNMB-Fc polypeptide (human) (UniProt Q14956). Description: FACS ligand binding assay: 2 ug/mL huGPNMB-Fc pre-complexed with rising Fab2, then SVEC4-10 cells; ligand side: unidentified ligand(s) on SVEC4-10 cells; bound GPNMB-Fc detected with anti-human IgG1 secondary.

B1: recombinant Fab2 fragment of anti-GPNMB antibody GPN-37 (protein)
VH: EVQLVESGGGLVQPGRSLKLSCAASGFTFSSKSGMAWVRQAPTKGLEWVASISNGGGDTYYRDSVKGRFTISRDNAKNTQYLQMDSLRPEDTATYYCARHRDYGYDAYFDYWGQGVMVTVSS
VL: DIQMTQSPASLSASLGETVTIECLASEDIYSSLAWYQQKPGKSPQLLIYDASSLQDGVPSRFSGSESGTQYSLEINSLQSEDAATYFCQQHHDYPYTFGAGTKLELK
Turning to B1, the binding result in experiment [1] and in [2] was “binds” in each case.

B2: anti-GPNMB antibody GPN-03 (antibody, human IgG1, V domains shown)
VH: QVQLQQSGPELVKPGASVKLSCKASGYTFTNYYMYWVKQRPGQGLEWIGEINPRNGGTNFNEKFKSKATLTVDKSSSTAYMQLSSLTFEDSAVYYCTTGLAYWGQGTLVTVSA
VL: DVVMTQTPLSLPVSLGDQASISCRSSQSLVHSDGNTYLHWYLQKPGQSPKLLIYKVSTRFSGVPDRFSGSGSGTDFTLKISRVEAEDLGVYFCSQSTHVPWTFGGGTKLEIK
Regarding B2, the binding entry in experiment [3], in [4], in experiment [5], in experiment [6], in [7] and in experiment [8] was “binds” in each case. In [9], the binding result is “binds”.

B3: anti-GPNMB antibody GPN-42 (antibody, human IgG1, V domains shown)
VH: DVKLVESGEDLVKPGGSLKLSCAASGFTFSSYAMSWVRQTPEKRLEWVAYISSGGDYIYYADTVKGRFTISRDNARNTLYLQMSSLKSEDTAMYYCTRDRYYDYDVRDYYTMDYWGQGTSVTVSS
VL: DVMMTQTPLSLPVSLGDQASISCRSSQSLVHSNGNTYLHWFLQKPGQSPKLLIFRVSNRFSGVPDRFSGRGSGTDFTLKISRVEAEDLGVYFCSQTTHVPRTFGGGTTLEIK
Consider B3, for which the binding entry in experiment [10] is “binds”.

B4: anti-GPNMB antibody GPN-35 (antibody, human IgG1, V domains shown)
VH: EVQLVESGGGSVRPGRSLKLSCAAAGFTFSDYYMTWVRQAPTKGLEWVASINHDGGGTYYRDSVKGRFTISRDNARSSLYLQMDSLRSEDTGTYYCTTRAGWHWGQGVMVTVSS
VL: DIQMTQSPASLSASLGETVSIECLASEDIYNYLTWYQQKPGKSPQVLIYSASGLQDGVPSRFSGSGSGRQYSLKINGLESEDAATYFCLQDSEYPLTFGSGTKLEIK
In the case of B4, in [11], the binding entry is listed as “binds”.

B5: recombinant Fab2 fragment of anti-GPNMB antibody GPN-35 (protein)
VH: EVQLVESGGGSVRPGRSLKLSCAAAGFTFSDYYMTWVRQAPTKGLEWVASINHDGGGTYYRDSVKGRFTISRDNARSSLYLQMDSLRSEDTGTYYCTTRAGWHWGQGVMVTVSS
VL: DIQMTQSPASLSASLGETVSIECLASEDIYNYLTWYQQKPGKSPQVLIYSASGLQDGVPSRFSGSGSGRQYSLKINGLESEDAATYFCLQDSEYPLTFGSGTKLEIK
For B5, the binding result in [1] and in experiment [12] was “binds” throughout.

B6: recombinant Fab2 fragment of anti-GPNMB antibody GPN-41 (protein)
VH: QLQLQQSGTEVVKPGASVKIPCKASGYAFSSYWMNWVKQRPGKGLEWIGQIYPGDGDTNDNGKFEGKATLTVDKSSNTAYIQLSSLTSEDSAVYFCARSPLHLRGSMDYWGQGTSVTVSS
VL: SIVMTQTPKFLLVSAGDRVTITCKASQSVSNDVAWFQQKPGQSPELLIYSASNRYTGVPDRFTASGYGTDFTFTISAVQAEDLAVYFCQQNYYSPFTFGGGTRLEIK
As for B6, the binding result in [12] was “binds”.

B7: recombinant Fab2 fragment of anti-GPNMB antibody GPN-65 (protein)
VH: QLQLQQSGTEVVKPGASVKIPCKASGYAFSSYWMNWVKQRPGKGLEWIGQIYPGDGDTNDNGKFEGKATLTVDKSSNTAYIQLSSLTSEDSAVYFCARSPLHLRGSMDYWGQGTSVTVSS
VL: SIVMTQTPKFLLVSAGDRVTITCKASQSVSNDVAWFQQKPGQSPELLIYSASNRYTGVPDRFTGSGYGTDFTFTISTVQAEDLAVYFCQQNYYSPFTFGGGTRLEIK
On to B7, for which the binding entry in [13] is “binds”.

B8: anti-GPNMB antibody GPN-48 (antibody, human IgG1, V domains shown)
VH: QVQLQQSGPELVKPGASVKLSCRASGYGFSSFWMNWVKQRPGKGLEWIGRIYPGKGDTLYNGKFKDKATLTADESSSTAYMQLSSLTSEDSAVYFCARSIYYYDYWYFDVWDTGTTVTVSS
VL: DIVMTQSHKFMSTSVGDRVNITCKASQDVNSAIAWYQQKPGQSPKLLIYSASYRFIGVPDRFTGSGSGTGFTFTISSVQAEDLAVYYCQQHYTTPLTFGAGTKLELK
For B8, the binding entry in experiment [11] is recorded as “binds”.

B9: recombinant Fab2 fragment of anti-GPNMB antibody GPN-48 (protein)
VH: QVQLQQSGPELVKPGASVKLSCRASGYGFSSFWMNWVKQRPGKGLEWIGRIYPGKGDTLYNGKFKDKATLTADESSSTAYMQLSSLTSEDSAVYFCARSIYYYDYWYFDVWDTGTTVTVSS
VL: DIVMTQSHKFMSTSVGDRVNITCKASQDVNSAIAWYQQKPGQSPKLLIYSASYRFIGVPDRFTGSGSGTGFTFTISSVQAEDLAVYYCQQHYTTPLTFGAGTKLELK
As to B9, in [12], the binding entry is given as “binds”.

B10: anti-GPNMB antibody GPN-33 (antibody, human IgG1, V domains shown)
VH: EVQLVESGGSLVQPGGSLKLSCVASGYTFSNYWMDWVRQTPGKSLEWIGEINTDGSKTNYAPSIKDRFTISRDNAKSTLYLQMSNVKADDTAIYYCTRGPGAWGQGTSVTVSS
VL: DIVMTQTPLSLSVAIGQSASISCKSSQSLKFSDGKTYLNWVFQSPGQSPKRLIYQVSKLDSGVPDRFSGTGSETDFILKISRVEAEDLGVYYCCQGSYSPWTIGGGTKLELK
As to B10, in experiment [10], the binding entry is listed as “binds”.

B11: anti-GPNMB antibody GPN-43 (antibody, human IgG1, V domains shown)
VH: EVQLQQSGPELVKPGASVKISCKASGYTFTDYYMNWVRQSHGKSLEWIGDINPYHGGSTYNQKIKVKATLTVDKSSSTAYMELRSLTSEDSAVYYCARNWPYFDYWGQGTTLTVSS
VL: DIQMTQSPASLSASVGETVTITCRASENIYSFLVWYQQKQGKSPQLLVYNAKTLAEGVPSRFSGSGSGTQFSLKISSLQPEDFGSYYCQHHFGTPPYTFGGGTKLEIK
With B11, in experiment [11], the binding result was “binds”.

B12: recombinant Fab2 fragment of anti-GPNMB antibody GPN-43 (protein)
VH: EVQLQQSGPELVKPGASVKISCKASGYTFTDYYMNWVRQSHGKSLEWIGDINPYHGGSTYNQKIKVKATLTVDKSSSTAYMELRSLTSEDSAVYYCARNWPYFDYWGQGTTLTVSS
VL: DIQMTQSPASLSASVGETVTITCRASENIYSFLVWYQQKQGKSPQLLVYNAKTLAEGVPSRFSGSGSGTQFSLKISSLQPEDFGSYYCQHHFGTPPYTFGGGTKLEIK
As to B12, the binding result in [12] was “binds”.
